The target in assay [1] is ZMYND8 (endogenous) (human (endogenous in 786-O and A498)) (UniProt Q9ULU4). Description: co-IP; endogenous proteins from 786-O and A498 cell lysates, Western blot; also with lambda protein phosphatase on the lysate, sgZMYND8, sgCDK1, RO-3306 (10 uM, 24 h) or roscovitine. A general note: In western blotting, separated proteins are transferred to a membrane and probed.
In assay [2] the target is T1, Flag-ZMYND8 (full length) (UniProt Q9ULU4).
T1 sequence: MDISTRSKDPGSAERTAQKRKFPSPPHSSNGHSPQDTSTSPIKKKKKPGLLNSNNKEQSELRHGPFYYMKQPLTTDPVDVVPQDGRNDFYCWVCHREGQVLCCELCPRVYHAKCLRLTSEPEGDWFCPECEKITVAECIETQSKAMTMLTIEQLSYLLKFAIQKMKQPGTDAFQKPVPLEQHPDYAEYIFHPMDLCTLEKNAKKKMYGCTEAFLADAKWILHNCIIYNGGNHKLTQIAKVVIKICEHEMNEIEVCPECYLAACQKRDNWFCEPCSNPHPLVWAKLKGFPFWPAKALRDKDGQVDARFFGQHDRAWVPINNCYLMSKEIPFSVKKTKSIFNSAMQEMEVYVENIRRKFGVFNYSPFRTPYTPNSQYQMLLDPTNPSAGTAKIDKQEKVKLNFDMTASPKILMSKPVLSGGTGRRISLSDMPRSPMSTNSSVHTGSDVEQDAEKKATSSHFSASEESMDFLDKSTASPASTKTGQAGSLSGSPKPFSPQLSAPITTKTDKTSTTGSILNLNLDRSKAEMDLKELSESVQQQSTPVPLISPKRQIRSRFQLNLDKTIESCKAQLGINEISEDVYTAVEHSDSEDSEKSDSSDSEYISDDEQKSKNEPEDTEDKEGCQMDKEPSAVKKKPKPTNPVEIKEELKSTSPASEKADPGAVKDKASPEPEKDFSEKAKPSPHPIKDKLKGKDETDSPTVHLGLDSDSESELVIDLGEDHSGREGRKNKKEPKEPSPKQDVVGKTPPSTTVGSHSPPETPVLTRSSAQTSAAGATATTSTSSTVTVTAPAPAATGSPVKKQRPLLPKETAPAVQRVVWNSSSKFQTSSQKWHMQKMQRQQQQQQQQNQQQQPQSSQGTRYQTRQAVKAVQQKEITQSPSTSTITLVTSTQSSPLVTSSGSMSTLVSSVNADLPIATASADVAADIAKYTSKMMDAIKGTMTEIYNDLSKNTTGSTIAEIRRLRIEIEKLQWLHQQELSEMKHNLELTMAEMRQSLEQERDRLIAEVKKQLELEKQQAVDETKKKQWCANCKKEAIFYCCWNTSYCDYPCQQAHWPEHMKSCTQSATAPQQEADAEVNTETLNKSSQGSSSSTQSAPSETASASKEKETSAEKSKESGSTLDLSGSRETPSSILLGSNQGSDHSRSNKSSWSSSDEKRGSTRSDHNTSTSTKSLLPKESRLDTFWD
Briefly: co-IP; tagged proteins (Flag-ZMYND8 and its truncation mutants, Myc-EZH2 WT or mutants) expressed by transfection in 293T cells, some with V5-CDK1 co-expressed; immunoprecipitation from lysate, Western blot; both orientations done.

Results are given in words; binding and its absence hold for the method and conditions named. In cells and extracts the contact can be indirect. Some binding calls cover weakened binding; strength is not graded here. For some assays here: Tags and fused reporters may be left off the sequences shown.

B1: FOXM1 (endogenous) (protein, UniProt Q08050 1-763)
chain: MKTSPRRPLILKRRRLPLPVQNAPSETSEEEPKRSPAQQESNQAEASKEVAESNSCKFPAGIKIINHPTMPNTQVVAIPNNANIHSIITALTAKGKESGSSGPNKFILISCGGAPTQPPGLRPQTQTSYDAKRTEVTLETLGPKPAARDVNLPRPPGALCEQKRETCADGEAAGCTINNSLSNIQWLRKMSSDGLGSRSIKQEMEEKENCHLEQRQVKVEEPSRPSASWQNSVSERPPYSYMAMIQFAINSTERKRMTLKDIYTWIEDHFPYFKHIAKPGWKNSIRHNLSLHDMFVRETSANGKVSFWTIHPSANRYLTLDQVFKPLDPGSPQLPEHLESQQKRPNPELRRNMTIKTELPLGARRKMKPLLPRVSSYLVPIQFPVNQSLVLQPSVKVPLPLAASLMSSELARHSKRVRIAPKVLLAEEGIAPLSSAGPGKEEKLLFGEGFSPLLPVQTIKEEEIQPGEEMPHLARPIKVESPPLEEWPSPAPSFKEESSHSWEDSSQSPTPRPKKSYSGLRSPTRCVSEMLVIQHRERRERSRSRRKQHLLPPCVDEPELLFSEGPSTSRWAAELPFPADSSDPASQLSYSQEVGGPFKTPIKETLPISSTPSKSVLPRTPESWRLTPPAKVGGLDFSPVQTSQGASDPLPDPLGLMDLSTTPLQSAPPLESPQRLLSSEPLDLISVPFGNSSPSDIDVPKPGSPEPQVSGLAANRSLTEGLVLDTMNDSLSKILLDISFPGLDEDPLGPDNINWSQFIPELQ
Take B1: the binding entry in assay [1] was “binds”.

B2: FOXM1 in 293T cells (protein, UniProt Q08050 1-763)
chain: B1 chain
On to B2, for which the binding result in assay [2] is listed as “binds”.

(Values after PMC7923384.)
